According to PubChem BioAssay AID1259415 (National Center for Advancing Translational Sciences (NCATS), 2018):
In all, about 410,000 compounds went through this assay and about 18,000 (4.4%) were called active. The shares of active, inactive and inconclusive entries below differ from those in the screen. No stated cut-off is given here; in the data, active means activity change below about -60%; inconclusive means no clear call, values can overlap the other calls; inactive means above about -39%.

Test: qHTS Assay for inhibitors of the human cytomegalovirus (HCMV)
Conditions: HFF cells, HCMV-luciferase reporter, 72 h; at 57.5 µM; stronger effect = lower value
Method in brief: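 Screen run at 2 compound doses on HFFs infected with reporter HCMV, MOI 1 PFU/cell. Luciferase activity from cell lysates at 72 h post infection gave inhibition relative to buffer-only and Salinomycin wells.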
On the % scale 0 is the no-effect control and ±100 the full control effect.

**Q.** For `CCOC(=O)C1=C(C)OC(N)=C(C#N)C1c1ccccc1` (stereo not drawn), which activity change, negative = inhibition is on record?
**A.** The activity change, negative = inhibition was inconclusive: -40.4%.

**Q.** Which activity change, negative = inhibition does the source give for `CCCN1CCC(NCc2cn(C)nc2-c2ccc(Oc3ccccc3)cc2)CC1` here?
**A.** Its activity change, negative = inhibition is inconclusive: -53.5%.

**Q.** Which activity change, negative = inhibition does the source give for `COc1ccc(/C=C/C(=O)c2cc(F)ccc2OC(=O)c2ccccc2OC)cc1OC` here?
**A.** The activity change, negative = inhibition was active: -97.4%.

**Q.** Which activity change, negative = inhibition does the source give for `Nc1c(Cl)nc(-c2ccccc2)nc1Cl` here?
**A.** Its activity change, negative = inhibition is active: -72.2%.

**Q.** Which activity change, negative = inhibition does the source give for `Cc1cccc(NC(=S)Nc2ccc(Cl)c(Cl)c2)c1` here?
**A.** The activity change, negative = inhibition was inconclusive: -55.4%.

**Q.** For `COc1cccc2sc(N(CCN(C)C)C(=O)c3ccc4c(c3)CCCC4)nc12`, which activity change, negative = inhibition is on record?
**A.** Its activity change, negative = inhibition is inconclusive: -59%.

**Q.** Which activity change, negative = inhibition does the source give for `CS(=O)(=O)N(CC(=O)N1CCN(Cc2ccc3c(c2)OCO3)CC1)Cc1ccc(Cl)cc1` here?
**A.** Its activity change, negative = inhibition is active: -83.7%.

**Q.** Which activity change, negative = inhibition does the source give for `Cc1[nH]c(C)c(S(=O)(=O)N2CCN(c3ccccc3F)CC2)c1C(=O)N1CCCCC1` here?
**A.** Its activity change, negative = inhibition is inconclusive: -40.1%.

**Q.** Which activity change, negative = inhibition does the source give for `O=C(O)c1ccccc1C(=O)Nc1ccc(Oc2cccc3ccccc23)cc1` here?
**A.** Its activity change, negative = inhibition is active: -63.6%.

**Q.** Which activity change, negative = inhibition does the source give for `CC1CCCCC1NC(=O)CCC(=O)N1CCOc2ccc(Cl)cc21` (stereo not drawn) here?
**A.** Its activity change, negative = inhibition is inconclusive: -47.4%.

**Q.** Which activity change, negative = inhibition does the source give for `CCc1cccc(C)c1NC(=O)CN(C)Cc1ccc(Br)cc1` here?
**A.** The activity change, negative = inhibition was inconclusive: -52.1%.

**Q.** With `Cc1ccc(S(=O)(=O)N2CCCCC2)cc1NC(=O)c1cc(F)c(F)c(F)c1F` as the molecule, how does the activity change, negative = inhibition read?
**A.** Its activity change, negative = inhibition is inactive: -22.7%.

**Q.** For `COc1ccccc1N1C(=NC(=O)CCC2CCCC2)SC2CS(=O)(=O)CC21` (stereo not drawn), which activity change, negative = inhibition is on record?
**A.** Its activity change, negative = inhibition is inconclusive: -44.3%.

**Q.** Which activity change, negative = inhibition does the source give for `CC(=O)Nc1ccc(OCCOc2ccc(/C=C3\C(=N)N4N=C(C(C)C)SC4=NC3=O)cc2)cc1` here?
**A.** The activity change, negative = inhibition was inconclusive: -42.3%.

**Q.** Which activity change, negative = inhibition does the source give for `Cc1ccc(NS(=O)(=O)c2cc(NC(=O)c3cc(=O)[nH]c(=O)[nH]3)ccc2Cl)c(C)c1` here?
**A.** The activity change, negative = inhibition was inconclusive: -44.8%.

**Q.** Which activity change, negative = inhibition does the source give for `Fc1ccc(-n2cc(-c3ccccc3)[n+]3c2SCC3)cc1` here?
**A.** Its activity change, negative = inhibition is inconclusive: -46.7%.

**Q.** Which activity change, negative = inhibition does the source give for `COc1ccccc1NC(=O)Nc1nc(CC(=O)NCc2ccc(F)cc2)cs1` here?
**A.** The activity change, negative = inhibition was inactive: -40%.

**Q.** With `Fc1cc(Br)ccc1Nc1c2c(nc3nc(-c4cccs4)nn13)CCCC2` as the molecule, how does the activity change, negative = inhibition read?
**A.** Its activity change, negative = inhibition is active: -60%.

**Q.** With `COC(=O)c1cc2ccccc2c(-c2c(O)ccc3ccccc23)c1O` as the molecule, how does the activity change, negative = inhibition read?
**A.** The activity change, negative = inhibition was inactive: -32%.

**Q.** With `O=C(CNC(=O)c1ccccc1)OC(C(=O)Nc1cc(C(F)(F)F)ccc1Cl)c1ccccc1` (stereo not drawn) as the molecule, how does the activity change, negative = inhibition read?
**A.** Its activity change, negative = inhibition is inconclusive: -54.7%.

**Q.** For `CCC(C)(C)n1nnnc1C(c1cc2ccc(OC)cc2[nH]c1=O)N1CCCCC1` (stereo not drawn), which activity change, negative = inhibition is on record?
**A.** Its activity change, negative = inhibition is inactive: -4.31%.

**Q.** With `COc1ccc(-c2nc3ccccc3nc2-c2ccc(OC)cc2)cc1` as the molecule, how does the activity change, negative = inhibition read?
**A.** Its activity change, negative = inhibition is inconclusive: -41%.

**Q.** Which activity change, negative = inhibition does the source give for `CCC1CCCCN1CCN1C(=O)C2C(C(=O)Nc3cccc(OC)c3)C3C=CC2(O3)C1C(=O)NC1CCCCC1` (stereo not drawn) here?
**A.** Its activity change, negative = inhibition is inconclusive: -58.9%.

**Q.** Which activity change, negative = inhibition does the source give for `Cc1cc(C(=O)CSc2nc3ccc(Cl)cc3[nH]2)c(C)n1CC1CCCO1` (stereo not drawn) here?
**A.** The activity change, negative = inhibition was active: -65.7%.

**Q.** With `Cn1cc(Cc2ccc(C(=O)N3CCCCC3)cn2)c2ccccc21` as the molecule, how does the activity change, negative = inhibition read?
**A.** The activity change, negative = inhibition was inactive: 4.81%.

**Q.** With `CCCN1CCC(C(=O)NC(c2ccc(F)cc2)c2ncccc2C)CC1` (stereo not drawn) as the molecule, how does the activity change, negative = inhibition read?
**A.** Its activity change, negative = inhibition is inconclusive: -41.3%.

**Q.** With `Cc1ccc(Cl)c(OCC(=O)Nc2cccnc2)c1` as the molecule, how does the activity change, negative = inhibition read?
**A.** The activity change, negative = inhibition was inactive: 43.8%.

**Q.** With `Cc1cccc(-c2nnn3c2nc(NCCc2ccc(S(N)(=O)=O)cc2)c2cc(Cl)ccc23)c1` as the molecule, how does the activity change, negative = inhibition read?
**A.** Its activity change, negative = inhibition is inconclusive: -58.5%.

**Q.** With `CC(=O)c1ccc(OCC(=O)Nc2cccc(S(=O)(=O)N3CCCC3)c2)cc1` as the molecule, how does the activity change, negative = inhibition read?
**A.** Its activity change, negative = inhibition is inactive: -31.8%.

**Q.** With `COc1ccccc1NS(=O)(=O)c1cccc(C(=O)N/N=C2\CC(=O)CC(C)(C)C2)c1` as the molecule, how does the activity change, negative = inhibition read?
**A.** The activity change, negative = inhibition was inactive: -14.7%.

**Q.** For `C=CCNC(=O)/C(C#N)=C/c1c(N2CC(C)OC(C)C2)nc2ccccn2c1=O` (stereo not drawn), which activity change, negative = inhibition is on record?
**A.** The activity change, negative = inhibition was inconclusive: -54.3%.

**Q.** For `COc1ccc(N2CCN(C(=O)c3cc4ccc5cccnc5c4[nH]3)CC2)cc1`, which activity change, negative = inhibition is on record?
**A.** Its activity change, negative = inhibition is inactive: -8.65%.

**Q.** Which activity change, negative = inhibition does the source give for `CCN(CC)c1ccc(N=Cc2ccc([N+](=O)[O-])o2)cc1` here?
**A.** The activity change, negative = inhibition was inactive: -8.85%.

**Q.** Which activity change, negative = inhibition does the source give for `COc1cccc(OCc2cc(C(=O)N3CCC(C(O)C(C)C)CC3)no2)c1` (stereo not drawn) here?
**A.** The activity change, negative = inhibition was inactive: -7.2%.

**Q.** For `CCOC(=O)c1cc2c(C)n(-c3ccc(OCC)cc3)c(C)c2ccc1=O`, which activity change, negative = inhibition is on record?
**A.** Its activity change, negative = inhibition is inconclusive: -58.6%.

**Q.** With `CCOC(=O)C1CCC(CN(Cc2ccc(Cl)cc2)S(=O)(=O)c2ccc(F)c(C(=O)Nc3cccc(F)c3)c2)CC1` (stereo not drawn) as the molecule, how does the activity change, negative = inhibition read?
**A.** The activity change, negative = inhibition was inactive: 15.9%.

**Q.** For `O=C(OCCN(C1=NS(=O)(=O)c2ccccc21)c1ccc(Cl)cc1)c1ccco1`, which activity change, negative = inhibition is on record?
**A.** The activity change, negative = inhibition was inconclusive: -42.1%.

**Q.** With `O=C(CCN1C(=O)c2ccccc2S1(=O)=O)Nc1ccc(Cl)cc1` as the molecule, how does the activity change, negative = inhibition read?
**A.** Its activity change, negative = inhibition is active: -77.7%.

**Q.** For `O=C(Nc1ccc(Br)cc1F)c1ccncc1`, which activity change, negative = inhibition is on record?
**A.** Its activity change, negative = inhibition is inactive: -18.7%.

**Q.** For `CC1=CC(C)(C)N(C(=O)CSc2nnc(-c3ccccc3)o2)c2ccc(C)cc21`, which activity change, negative = inhibition is on record?
**A.** Its activity change, negative = inhibition is inconclusive: -42.3%.

**Q.** With `Cc1cccc(N2CCN(Cc3cnc(Cl)s3)CC2C)c1` (stereo not drawn) as the molecule, how does the activity change, negative = inhibition read?
**A.** The activity change, negative = inhibition was inconclusive: -41.7%.

**Q.** Which activity change, negative = inhibition does the source give for `Cc1ncsc1CCOC(=O)c1ccc(Cl)cc1` here?
**A.** Its activity change, negative = inhibition is inconclusive: -46.9%.

**Q.** For `Fc1ccc(-c2cc3nc4c(c(N5CCOCC5)n3n2)CCCC4)cc1`, which activity change, negative = inhibition is on record?
**A.** The activity change, negative = inhibition was inactive: -20.3%.
